The target of this series is T1, Nattokinase (NK) (UniProt P35835).
T1 sequence (looked up, limits assumed): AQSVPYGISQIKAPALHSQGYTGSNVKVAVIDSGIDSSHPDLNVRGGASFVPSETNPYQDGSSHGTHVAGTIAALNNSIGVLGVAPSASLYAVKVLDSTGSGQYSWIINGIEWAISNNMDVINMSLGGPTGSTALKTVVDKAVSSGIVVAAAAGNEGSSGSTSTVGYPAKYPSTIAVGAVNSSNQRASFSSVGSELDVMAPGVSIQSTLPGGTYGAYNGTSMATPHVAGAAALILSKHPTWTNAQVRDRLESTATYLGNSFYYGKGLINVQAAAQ
Kind of series: SPR. The settings on record: solution competition SPR (KS), 4 C, purified native protein, protein details: purchased, further purified by chromatography, label: 5' 6-FAM (FITC) in CE assay, single-stranded DNA.

Construct, isoform or probe ends are uncertain for at least one entry. Where a protein sequence is shown, tags need not be part of it.

In general, Kd refers to the concentration at which binding is half-saturated. A higher Kd goes with lower affinity. As for “AAAGGCGCTGTGCACAGTGTCCCCGCGGG [NK-APT-13]”, for the setting “R2 0.97”, the Kd was found to be 35 nM.

Consider “AAATGAGGACCTCATTATCTTAGGAAGGT [NK-APT-03]”, for which the Kd (R2 0.99) was 87 nM.

“GCCTTAAAAACGTCCTTAGTGACGTTTAC [NK-APT-04]” came in with a Kd (R2 0.99) of 15 nM.

Under “R2 0.98”, “TCGATAGTTGTACTGGAGTGAATCACTGA [NK-APT-15]” displayed a Kd of 21 nM.

“CCGAGGGGAATTCACCACGAATCGCCTCT [NK-APT-14]” had a Kd (R2 0.97) of 28 nM.

Consider “GACTACCGCGGAGATCTCCAATCGGGATG [NK-APT-02]”, for which the Kd (R2 0.99) stood at 16 nM.

On to “CTCGTGTAAAACGATGGTAGCTGTACTTG [NK-APT-12]”, for which the Kd (R2 0.99) was 8.7 nM.

These data come from patent US20210207128.
